From patent US8741946B2, “Inhibitors of flaviviridae viruses” (priority 2011, dated 2014)
For at least one compound, name, drawing or mass did not settle the structure.

System: NS5B mutant M423T (amino acids 1-570; GT-1b)
Experiment: Surface Plasmon Resonance binding affinity to M423T NS5B
Set-up: species or system HCV GT-1b
Details: M423T KD versus wild-type KD
Source text: Compounds with minimal fold difference in binding affinity may have particular clinical utility.
In vitro studies with NS5B employed soluble, 21 residue C-terminal truncated forms of the NS5b protein (amino acids 1-570; GT-1b; wild-type and mutant M423T. See Hung, M., Wang, R., Liu, X.: ‘Preparation of HCV NS3 and NS5B to support small molecule drug discovery’, Current Protocols in Pharmacology, 2011, in press). Surface Plasmon Resonance (SPR) was used to measure the binding affinity of compounds described herein to the protein constructs. Standard amine coupling was employed to link the protein to the surface of a Biacore CM5 sensor chip using 10 mM sodium acetate pH 5.5 buffer to an immobilization level of ˜2500 RU. Experiments were performed using a Biacore T100 system at 25° C. in running buffer (50 mM Hepes pH 7.5, 5 mM MgCl2, […], 1 mM EDTA, 1 mM TCEP, 0.01% P20, 5% DMSO). Compounds were tested in a 3-fold concentration dilution series for 8 concentrations starting at 162 nM, using an association phase of 60 seconds and dissociation phase of 5 minutes at a flow rate of 100 μl min^−1. […] Processed data were analyzed using non-linear least squares analysis with a global fit of a 1:1 binding model with mass transport.

| Structure (SMILES) | Fold difference |
| --- | --- |
| CC1=CC[C@@H](C(=O)N(c2cc(C#CC(C)(C)C)sc2C(=O)O)C(C)C)[C@@H](C)C1 [Example 4, 5-(3,3-dimethylbut-1-ynyl)-3-((1R,6S)—N-isopropyl-4,6-dimethylcyclohex-3-enecarboxamido)thiophene-2-carboxylic acid] | 2.9 |
| CC1=CC[C@H](C(=O)N(c2cc(C#CC(C)(C)C)sc2C(=O)O)C(C)C)[C@@H](C)C1 [Example 3, 5-(3,3-Dimethylbut-1-ynyl)-3-((1S,6S)—N-isopropyl-4,6-dimethylcyclohex-3-enecarboxamido)thiophene-2-carboxylic acid] | 6.0 |
